Data taken from paper PMC8081665, “Structural and biochemical mechanisms of NLRP1 inhibition by DPP9” (Nature, 2021).

How the values were obtained:
[1] = biological target: T1, GST–rNLRP1 FIIND (wild type) (rat) (UniProt D9I2G3); experiment: pull-down; GST fusion held on GS4B resin, incubated with an excess of purified DPP9 on ice for 60 min, washed five times with 10 mM Tris pH 8.0, 100 mM NaCl, eluted with GSH; SDS–PAGE with Coomassie staining; also with or without VbP; both purified
T1 sequence: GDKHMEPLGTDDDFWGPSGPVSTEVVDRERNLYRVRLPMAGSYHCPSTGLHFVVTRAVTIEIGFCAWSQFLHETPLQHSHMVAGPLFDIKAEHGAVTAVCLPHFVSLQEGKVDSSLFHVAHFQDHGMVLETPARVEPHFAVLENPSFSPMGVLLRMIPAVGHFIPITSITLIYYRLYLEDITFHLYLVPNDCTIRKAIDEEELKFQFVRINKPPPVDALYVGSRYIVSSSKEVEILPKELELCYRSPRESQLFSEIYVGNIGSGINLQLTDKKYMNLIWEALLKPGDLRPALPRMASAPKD

[2] = biological target: T2, Flag-tagged rNLRP1 (rat) (UniProt D9I2G3); experiment: co-IP; lysates of transfected 293T cells collected 48 h post transfection, anti-Flag immunoprecipitation, immunoblot
T2 sequence: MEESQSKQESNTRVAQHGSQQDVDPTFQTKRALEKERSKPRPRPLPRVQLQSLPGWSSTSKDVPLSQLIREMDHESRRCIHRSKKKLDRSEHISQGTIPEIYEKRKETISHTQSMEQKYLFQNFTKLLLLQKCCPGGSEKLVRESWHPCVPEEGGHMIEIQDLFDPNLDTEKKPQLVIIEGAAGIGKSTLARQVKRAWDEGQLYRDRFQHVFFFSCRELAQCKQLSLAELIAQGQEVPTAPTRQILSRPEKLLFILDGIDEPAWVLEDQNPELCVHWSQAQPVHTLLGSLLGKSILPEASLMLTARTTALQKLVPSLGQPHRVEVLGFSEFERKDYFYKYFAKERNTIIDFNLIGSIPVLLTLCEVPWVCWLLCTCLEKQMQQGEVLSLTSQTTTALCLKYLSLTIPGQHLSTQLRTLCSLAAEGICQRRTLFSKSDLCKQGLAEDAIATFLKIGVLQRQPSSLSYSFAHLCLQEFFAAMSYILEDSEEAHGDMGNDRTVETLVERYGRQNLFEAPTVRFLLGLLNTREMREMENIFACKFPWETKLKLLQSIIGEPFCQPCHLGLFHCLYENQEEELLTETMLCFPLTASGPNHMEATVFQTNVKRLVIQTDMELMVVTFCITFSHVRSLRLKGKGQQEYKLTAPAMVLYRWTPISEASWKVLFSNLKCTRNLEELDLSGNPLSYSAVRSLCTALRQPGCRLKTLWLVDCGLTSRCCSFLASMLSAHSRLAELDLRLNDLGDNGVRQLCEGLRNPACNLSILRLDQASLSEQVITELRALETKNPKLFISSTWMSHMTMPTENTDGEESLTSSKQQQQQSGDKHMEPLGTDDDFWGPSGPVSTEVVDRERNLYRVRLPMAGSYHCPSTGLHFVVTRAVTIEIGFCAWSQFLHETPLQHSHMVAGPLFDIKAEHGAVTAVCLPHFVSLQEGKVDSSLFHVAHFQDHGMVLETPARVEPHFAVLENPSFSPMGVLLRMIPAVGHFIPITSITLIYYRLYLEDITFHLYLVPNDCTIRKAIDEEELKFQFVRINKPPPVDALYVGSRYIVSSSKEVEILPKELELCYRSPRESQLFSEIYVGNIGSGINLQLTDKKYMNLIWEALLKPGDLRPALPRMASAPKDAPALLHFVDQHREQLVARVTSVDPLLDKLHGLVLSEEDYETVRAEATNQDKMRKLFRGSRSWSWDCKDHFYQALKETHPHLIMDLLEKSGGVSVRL

[3] = biological target: rat DPP9 (rat); experiment: cryo-EM structure; purified complex after gel filtration, about 0.3 mg/ml in 25 mM Tris-HCl pH 8.0, 150 mM NaCl, 3 mM DTT; Titan Krios 300 kV; both purified
[4] = biological target: preformed GST–rNLRP1 FIIND(S969A)–rDPP9 complex (rat); experiment: SEC; Superose 6 10/30, 10 mM Tris pH 8.0, 100 mM NaCl; purified GST–rNLRP1 FIIND(S969A)–rDPP9 complex incubated with fully processed rNLRP1 FIIND at a molar ratio of about 1:1 at 4 °C for 150 min; both purified

rat DPP9 (enzyme)
binding [1]: binds

Myc-tagged rDPP9 (rat) (enzyme)
binding [2]: binds

B1: rNLRP1 FIIND–CARD(S969A) (domain or fragment, UniProt D9I2G3 822-1218)
chain: GDKHMEPLGTDDDFWGPSGPVSTEVVDRERNLYRVRLPMAGSYHCPSTGLHFVVTRAVTIEIGFCAWSQFLHETPLQHSHMVAGPLFDIKAEHGAVTAVCLPHFVSLQEGKVDSSLFHVAHFQDHGMVLETPARVEPHFAVLENPSFAPMGVLLRMIPAVGHFIPITSITLIYYRLYLEDITFHLYLVPNDCTIRKAIDEEELKFQFVRINKPPPVDALYVGSRYIVSSSKEVEILPKELELCYRSPRESQLFSEIYVGNIGSGINLQLTDKKYMNLIWEALLKPGDLRPALPRMASAPKDAPALLHFVDQHREQLVARVTSVDPLLDKLHGLVLSEEDYETVRAEATNQDKMRKLFRGSRSWSWDCKDHFYQALKETHPHLIMDLLEKSGGVSVRL
binding [3]: binds

B2: rNLRP1 FIIND (residues 822-1122), autoprocessed (domain or fragment, UniProt D9I2G3 822-968; D9I2G3 969-1122)
chain 1: GDKHMEPLGTDDDFWGPSGPVSTEVVDRERNLYRVRLPMAGSYHCPSTGLHFVVTRAVTIEIGFCAWSQFLHETPLQHSHMVAGPLFDIKAEHGAVTAVCLPHFVSLQEGKVDSSLFHVAHFQDHGMVLETPARVEPHFAVLENPSF
chain 2: SPMGVLLRMIPAVGHFIPITSITLIYYRLYLEDITFHLYLVPNDCTIRKAIDEEELKFQFVRINKPPPVDALYVGSRYIVSSSKEVEILPKELELCYRSPRESQLFSEIYVGNIGSGINLQLTDKKYMNLIWEALLKPGDLRPALPRMASAPKD
binding [4]: binds

B3: full-length rat NLRP1 (natural protein, UniProt D9I2G3 1-1218, looked up)
chain: MEESQSKQESNTRVAQHGSQQDVDPTFQTKRALEKERSKPRPRPLPRVQLQSLPGWSSTSKDVPLSQLIREMDHESRRCIHRSKKKLDRSEHISQGTIPEIYEKRKETISHTQSMEQKYLFQNFTKLLLLQKCCPGGSEKLVRESWHPCVPEEGGHMIEIQDLFDPNLDTEKKPQLVIIEGAAGIGKSTLARQVKRAWDEGQLYRDRFQHVFFFSCRELAQCKQLSLAELIAQGQEVPTAPTRQILSRPEKLLFILDGIDEPAWVLEDQNPELCVHWSQAQPVHTLLGSLLGKSILPEASLMLTARTTALQKLVPSLGQPHRVEVLGFSEFERKDYFYKYFAKERNTIIDFNLIGSIPVLLTLCEVPWVCWLLCTCLEKQMQQGEVLSLTSQTTTALCLKYLSLTIPGQHLSTQLRTLCSLAAEGICQRRTLFSKSDLCKQGLAEDAIATFLKIGVLQRQPSSLSYSFAHLCLQEFFAAMSYILEDSEEAHGDMGNDRTVETLVERYGRQNLFEAPTVRFLLGLLNTREMREMENIFACKFPWETKLKLLQSIIGEPFCQPCHLGLFHCLYENQEEELLTETMLCFPLTASGPNHMEATVFQTNVKRLVIQTDMELMVVTFCITFSHVRSLRLKGKGQQEYKLTAPAMVLYRWTPISEASWKVLFSNLKCTRNLEELDLSGNPLSYSAVRSLCTALRQPGCRLKTLWLVDCGLTSRCCSFLASMLSAHSRLAELDLRLNDLGDNGVRQLCEGLRNPACNLSILRLDQASLSEQVITELRALETKNPKLFISSTWMSHMTMPTENTDGEESLTSSKQQQQQSGDKHMEPLGTDDDFWGPSGPVSTEVVDRERNLYRVRLPMAGSYHCPSTGLHFVVTRAVTIEIGFCAWSQFLHETPLQHSHMVAGPLFDIKAEHGAVTAVCLPHFVSLQEGKVDSSLFHVAHFQDHGMVLETPARVEPHFAVLENPSFSPMGVLLRMIPAVGHFIPITSITLIYYRLYLEDITFHLYLVPNDCTIRKAIDEEELKFQFVRINKPPPVDALYVGSRYIVSSSKEVEILPKELELCYRSPRESQLFSEIYVGNIGSGINLQLTDKKYMNLIWEALLKPGDLRPALPRMASAPKDAPALLHFVDQHREQLVARVTSVDPLLDKLHGLVLSEEDYETVRAEATNQDKMRKLFRGSRSWSWDCKDHFYQALKETHPHLIMDLLEKSGGVSVRL
notes: rat NLRP1, residues 1-1218, gene synthesized from GenBank HM060632.1; Autocleaves in the FIIND between F968 and S969; of the second copy only UPA is seen, and the abstract calls it a UPA-CARD fragment; also called rNLRP1; full-length rNLRP1; source: sf21 insect cells (baculovirus), co-expressed with rDPP9, purified (GS4B, PreScission, gel filtration); not shown: GST, N-terminal, cleaved
binding [3]: binds

Results are given in words; binding and its absence hold for the method and conditions named. A result given as binding can be weak or reduced; the word gives no strength. For some assays here: Where a sequence is shown, tags or fusion partners need not be part of it. For some assays here: Binding seen in cells or lysates may run through a third protein.
